Source: patent US20250059284A1
No constants are given. Whether binding was seen depends on the method and setting. Some entries that bind do so weakly or less than the wild type. Tags and fused reporters may be left off the sequences shown.

Key:
[1] = target: T1, galectin-10 (Gal10), species and tag not stated for the assay (UniProt Q05315); experiment: SPR Biacore 3000, binding activity after nebulization (FIG. 9)
T1 sequence (looked up): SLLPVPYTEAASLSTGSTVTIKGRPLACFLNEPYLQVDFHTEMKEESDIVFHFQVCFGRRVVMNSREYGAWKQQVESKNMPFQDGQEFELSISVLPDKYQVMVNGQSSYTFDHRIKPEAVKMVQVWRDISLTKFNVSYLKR

[2] = target: T1, galectin-10 (Gal10), species and tag not stated for the assay; experiment: SPR Biacore 3000, galectin-10 binding activity after nebulization
[3] = target: T1, galectin-10 (Gal10), species and tag not stated for the assay; experiment: SPR (Biacore 3000), functional active concentration of nebulized samples (Aerogen Solo, three devices) against titration curves of the T0 reference sample, as % relative activity

Measured: binding

B1: g20H09 human Fab (Fab, V domains shown)
VH: EVQLLESGGGLVQPGGSLRLSCAASGFTFRSYDMSWVRQAPGKGLEWVSAIKWHRITYYADSVKGRFTISRDNSKNTLYLQMNSLRAEDTAVYYCATTHGIGTLGFGSWGQGTLVTVSS
VL: SYELTQPLSVSVALGQTARITCDGNNIGSKSAQWYQQKPGQAPVLVIYADEYRPEGIPERFSGSNSGNTATLTISRAQAGDEADYYCQVWDGSAAVFGGGTQLTVL
binds: all assays above

B2: g23H09 human Fab (Fab, V domains shown)
VH: EVQLLESGGGLVQPGGSLRLSCAASGFTFRSYDMSWVRQAPGKGLEWVSAIAQFQHWTYYADSVKGRFTISRDNSKNTLYLQMNSLRAEDTAVYYCATTHGIGTLGFGSWGQGTLVTVSS
VL: B1 VL
binds: all assays above

B3: g24F02_N53A human Fab (Fab, V domains shown)
VH: EVQLLESGGGLVQPGGSLRLSCAASGFTFSSYAMSWVRQAPGKGLEWVSAINAGGGSTSYADSVKGRFTISRDNSKNTLYLQMNSLRAEDTAVYYCAKGLRVGVLGFDYWGQGTLVTVSS
VL: B1 VL
binds: all assays above
